From PubChem BioAssay AID2284353 (EPA ToxCast)
The shares of active, inactive and inconclusive entries below differ from those in the screen. Potencies beside an inconclusive call are fits to weak or partial responses and may not hold up. Activity calls are given as the source filed them. How the source made its calls: active means hit-call score of the fitted dose curve at least 0.9, where 1 is the maximum; inconclusive means response in the unintended direction; inactive means score below 0.9.

system: Japanese medaka Peroxisome Proliferator-activated Receptor gamma (PPARg), gene 100304459; test: ATG_jmPPARg_EcoTox2: Attagene TRANS-FACTORIAL EcoTox-2 HepG2 Assay for Japanese medaka Peroxisome Proliferator-activated Receptor gamma (PPARg)
Experimental: ATG_EcoTox2 is a cell-based, multiplexed assay created by modifying the existing Attagene TRANS-FACTORIAL system to include a panel of nuclear receptors from some or all the following species: human (Homo sapiens), african clawed frog (Xenopus laevis), rainbow trout (Oncorhynchus mykiss), japanese medaka (Oryzias latipes), and zebrafish (Danio rerio). The ECOTOX2-FACTORIAL format uses HepG2, a human liver cell line, with measurements taken at 24 hours after chemical dosing in a 24-well plate. ATG_jmPPARg_EcoTox2 is one of 29 assay components calculated in the ATG_EcoTox2 assay. It is designed to make measurements of mRNA induction, a form of inducible reporter, as detected with fluorescence intensity signals by Reverse transcription polymerase chain reaction (RT-PCR) and Capillary electrophoresis technology.The assay endpoint ATG_jmPPARg_EcoTox2 was analyzed in the positive analysis fitting direction relative to DMSO as the negative control and baseline of activity. Using a type of inducible reporter, measures of mRNA for gain-of-signal activity can be used to understand the reporter gene at the transcription factor-level as they relate to the gene PPARg. Furthermore, this assay endpoint can be referred to as a primary readout, because this assay has produced multiple assay endpoints where this one serves a reporter gene function. To generalize the intended target to other relatable targets, this assay endpoint is annotated to the nuclear receptor intended target family, where the subfamily is non-steroidal.
Human liver HepG2 cells are transiently transfected with multiple reporter transcription units (MRTUs) in 6-well plates using FuGene 6 reagent (Roche; 3 ml FuGene/1 mg DNA). The MRTU constructs are regulated by a cis-regulating element (promoter). Each RTU expresses a GAL4-UAS that regulates the transcription of a nearby target reporter gene sequence. A major difference between the CIS and TRANS system is that in CIS activities of endogenous TFs are measured, whereas the TRANS assay evaluates changes in activities of exogenous, chimeric NR-Gal4 proteins. […] At the end of 24 hour incubation, total RNA was isolated using TriZol reagent (Invitrogen). The isolated RNA is then reverse-transcribed using oligo(dT) primer and Mo-MLV reverse transcriptase (Invitrogen) with DNAse I (Ambion) treatment for 30 min. The one-tenth of the produced cDNA was amplified by PCR using Taq DNA polymerase (Invitrogen) and two reporter sequence-specific primers. The PCR products were fluorescently labeled by primer extension with 6-arboxyfluorescein (6-FAM) 5'-labeled reporter sequence-specific primer (2 min at 95 C, 20 s at 68 C and 10 min at 72 C) and these products were digested with 5U of HpaI (New England Biolabs) for 2h at 37 C. The fragments were purified using Qiaquick PCR columns (Qiagen), analyzed on an ABI 3130xL genetic analyzer (Applied Biosystems) with peak positions identified by using a set of X-rhodamine (ROX)-labeled MapMarker1000 molecular weight standards (BioVentures). The raw capillary electrophoresis data was processed using Attagraph software (Attagene).

Structure (SMILES)	outcome	AC50
CC(C)OC(=O)C(C)(C)Oc1ccc(C(=O)c2ccc(Cl)cc2)cc1	inactive	–
C[C@@H]1C[C@H]2[C@@H]3CCC4=CC(=O)C=C[C@]4(C)[C@@]3(F)[C@@H](O)C[C@]2(C)[C@@]1(O)C(=O)COP(=O)(O)O	–	inconclusive: 50 µM
CC(C)(Oc1ccc(C2CC2(Cl)Cl)cc1)C(=O)O (configuration not stated)	–	inconclusive: 0.0824 µM
Cc1cccc(Nc2cc(Cl)nc(SCC(=O)O)n2)c1C	–	inconclusive: 0.0823 µM
CC(C)(Oc1ccc(CCNC(=O)c2ccc(Cl)cc2)cc1)C(=O)O	–	inconclusive: 100 µM
CC(c1cc2ccccc2s1)N(O)C(N)=O (configuration not stated)	inactive	–
CC(C)(Oc1ccc(Cl)cc1)C(=O)O	–	inconclusive: 100 µM
